Some entries repeat one wording, which the source may state once for all of them.

A short description of this data set: Amount of residual metal (ICP-MS). In kind it is physicochemical. The settings on record: ICP-MS after wet-ashing.
Take `Cc1cc(O)c(C(C)C)cc1C(c1ccc2cc(C(c3cc(C(C)C)c(O)cc3C)c3cc(C(C)C)c(O)cc3C)ccc2c1)c1cc(C(C)C)c(O)cc1C` [Compound 103]: the Residual metal result was “A (rated A when the amount was less than 1 ppm)”.
Regarding `Cc1cc(C(c2ccc3cc(C(c4cc(C)c(O)c(C)c4C)c4cc(C)c(O)c(C)c4C)ccc3c2)c2cc(C)c(O)c(C)c2C)c(C)c(C)c1O` [Compound 102], the Residual metal result is listed as “A (rated A when the amount was less than 1 ppm)”.
On to `Cc1cc(C(c2ccc3ccc(C(c4cc(C)c(O)c(C)c4C)c4cc(C)c(O)c(C)c4C)cc3c2)c2cc(C)c(O)c(C)c2C)c(C)c(C)c1O` [Compound 105], for which the Residual metal result is given as “A (rated A when the amount was less than 1 ppm)”.
On to `Cc1cc(C(C)(c2ccc(O)c(C)c2)c2ccc3ccccc3c2)ccc1O` [Compound 206, 1-(2-naphthyl)-1,1-bis(3-methyl-4-hydroxyphenyl)ethane, reference compound], for which the Residual metal entry is listed as “A (rated A when the amount was less than 1 ppm)”.
With `Cc1cc(C(c2ccc(-c3cccc(-c4ccc(C(c5cc(C)c(O)cc5C)c5cc(C)c(O)cc5C)cc4)c3)cc2)c2cc(C)c(O)cc2C)c(C)cc1O` [Compound 106] the entry was “A (rated A when the amount was less than 1 ppm)”.
Consider `Cc1cc(C(c2cc(C(c3cc(C)c(O)c(C)c3C)c3cc(C)c(O)c(C)c3C)cc(C(c3cc(C)c(O)c(C)c3C)c3cc(C)c(O)c(C)c3C)c2)c2cc(C)c(O)c(C)c2C)c(C)c(C)c1O` [Compound 108], for which the Residual metal result was “A (rated A when the amount was less than 1 ppm)”.
Turning to `Cc1cc(C(c2ccc3cc(C(c4cc(C)c(O)cc4C)c4cc(C)c(O)cc4C)ccc3c2)c2cc(C)c(O)cc2C)c(C)cc1O` [Compound 101, tetrakis(2,5-xylenol)-2,6-naphthalenedialdehyde], the Residual metal result was “A (rated A when the amount was less than 1 ppm)”.
Consider `Cc1cc(C(c2ccc(-c3ccc(-c4ccc(C(c5cc(C)c(O)cc5C)c5cc(C)c(O)cc5C)cc4)cc3)cc2)c2cc(C)c(O)cc2C)c(C)cc1O` [Compound 107], for which the Residual metal result was “A (rated A when the amount was less than 1 ppm)”.
With `Oc1ccc(C2(c3ccc(O)cc3)c3ccccc3-c3ccccc32)cc1` [Compound 209, bisphenol fluorene, reference compound] the entry was “A (rated A when the amount was less than 1 ppm)”.
As for `Cc1cc(C(c2ccc3ccc(C(c4cc(C)c(O)cc4C)c4cc(C)c(O)cc4C)cc3c2)c2cc(C)c(O)cc2C)c(C)cc1O` [Compound 104], the entry is “A (rated A when the amount was less than 1 ppm)”.

The values above are taken from patent US8802353B2, “Compound for resist and radiation-sensitive composition specification” (Mitsubishi Gas Chemical Company, Inc., priority 2004, dated 2014).
